According to patent publication US6423730B1, “Method to control termites” (Dow AgroSciences LLC, priority 1999, dated 2002):

System: Reticulitermes
Assay: AWPA E1-97 treated southern yellow pine wood block termite test
Type: in vivo
Details: treated wood blocks
Protocol: Compounds of Formula I were evaluated using standard evaluation methodology as prescribed by the American Wood Preservers Association Standard AWPA E1-97, incorporated herein by reference, using a species of the destructive termite, Reticulitermes.
In this test replicate containers containing damp sand and southern yellow pine wood blocks treated with the compound are used. Termites are introduced into the test container and after four weeks the containers are disassembled and the wood blocks are evaluated for termite damage. Termite mortality is also evaluated.

| Compound | End Use Level |
| --- | --- |
| O=C(Nc1c(Br)cc(OC(F)(F)F)cc1Br)c1sc(C(F)(F)F)nc1C(F)(F)F [Compound 5] | 0.384 kg/m^3 |
| CCOP(=S)(OCC)Oc1nc(Cl)c(Cl)cc1Cl [Comparative, chlorpyrifos, reference compound] | 0.288 kg/m^3 |
